Assay results from publication PMC13415957.
These are yes or no findings as the source states them, for the method shown. Binding seen in cells or lysates may run through a third protein. A result given as binding can be weak or reduced; the word gives no strength.

By UniProt entry, the sequences of proteins in these tests, tags left out. Where a name states a change or a piece, a line headed by the entry shows the natural chain unless it says otherwise.
UniProt K4D9Y4: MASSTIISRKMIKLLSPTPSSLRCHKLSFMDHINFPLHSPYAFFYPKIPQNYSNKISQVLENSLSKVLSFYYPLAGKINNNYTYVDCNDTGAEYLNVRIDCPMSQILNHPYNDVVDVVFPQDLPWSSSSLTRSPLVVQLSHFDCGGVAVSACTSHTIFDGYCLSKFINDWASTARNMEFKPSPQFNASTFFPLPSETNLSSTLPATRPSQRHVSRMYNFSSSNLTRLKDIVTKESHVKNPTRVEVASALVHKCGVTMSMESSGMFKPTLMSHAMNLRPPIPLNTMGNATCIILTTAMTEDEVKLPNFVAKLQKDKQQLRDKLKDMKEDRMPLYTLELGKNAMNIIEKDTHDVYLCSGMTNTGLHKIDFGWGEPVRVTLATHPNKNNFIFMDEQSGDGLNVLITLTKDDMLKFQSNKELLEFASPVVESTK
UniProt K4DBH0: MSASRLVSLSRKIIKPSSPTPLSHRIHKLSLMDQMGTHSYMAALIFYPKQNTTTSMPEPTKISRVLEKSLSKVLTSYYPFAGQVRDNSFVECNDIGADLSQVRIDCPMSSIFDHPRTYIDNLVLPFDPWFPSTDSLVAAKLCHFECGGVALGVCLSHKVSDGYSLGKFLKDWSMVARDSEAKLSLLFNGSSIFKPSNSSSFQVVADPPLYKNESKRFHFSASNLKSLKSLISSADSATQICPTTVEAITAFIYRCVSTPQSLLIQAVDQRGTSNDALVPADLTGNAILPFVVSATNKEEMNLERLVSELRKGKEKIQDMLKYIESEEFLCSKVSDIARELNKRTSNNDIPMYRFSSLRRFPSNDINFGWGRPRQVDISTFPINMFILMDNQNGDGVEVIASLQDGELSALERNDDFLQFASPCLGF

Target: SlASAT3–cYFP (Solanum lycopersicum (tomato)) (UniProt K4D9Y4)
Experiment: split reporter; BiFC in N. benthamiana leaves co-infiltrated 1:1:1 with ER RFP marker, nYFP and cYFP constructs; YFP fluorescence by confocal microscopy 72 h after infiltration

Question: With “nYFP–SlASAT1 (from UniProt K4DBH0) (enzyme)” as the substance, how does the binding read?
Answer: binds
